The target in assay [1] is T1, snRNP200-flag construct (UniProt O75643 1-2136, limits assumed).
T1 construct: mature; Used as lysate at 3 ug/ml, not purified; also called full-length snRNP200 with an N-terminal FLAG tag; not shown: N-terminal FLAG tag
Nature of the assay: capture ELISA with snRNP200-flag lysate. In general terms: An ELISA detects its analyte on a solid surface through an enzyme-linked reagent.

By UniProt entry, the sequences of proteins in these tests, tags left out.
UniProt O75643: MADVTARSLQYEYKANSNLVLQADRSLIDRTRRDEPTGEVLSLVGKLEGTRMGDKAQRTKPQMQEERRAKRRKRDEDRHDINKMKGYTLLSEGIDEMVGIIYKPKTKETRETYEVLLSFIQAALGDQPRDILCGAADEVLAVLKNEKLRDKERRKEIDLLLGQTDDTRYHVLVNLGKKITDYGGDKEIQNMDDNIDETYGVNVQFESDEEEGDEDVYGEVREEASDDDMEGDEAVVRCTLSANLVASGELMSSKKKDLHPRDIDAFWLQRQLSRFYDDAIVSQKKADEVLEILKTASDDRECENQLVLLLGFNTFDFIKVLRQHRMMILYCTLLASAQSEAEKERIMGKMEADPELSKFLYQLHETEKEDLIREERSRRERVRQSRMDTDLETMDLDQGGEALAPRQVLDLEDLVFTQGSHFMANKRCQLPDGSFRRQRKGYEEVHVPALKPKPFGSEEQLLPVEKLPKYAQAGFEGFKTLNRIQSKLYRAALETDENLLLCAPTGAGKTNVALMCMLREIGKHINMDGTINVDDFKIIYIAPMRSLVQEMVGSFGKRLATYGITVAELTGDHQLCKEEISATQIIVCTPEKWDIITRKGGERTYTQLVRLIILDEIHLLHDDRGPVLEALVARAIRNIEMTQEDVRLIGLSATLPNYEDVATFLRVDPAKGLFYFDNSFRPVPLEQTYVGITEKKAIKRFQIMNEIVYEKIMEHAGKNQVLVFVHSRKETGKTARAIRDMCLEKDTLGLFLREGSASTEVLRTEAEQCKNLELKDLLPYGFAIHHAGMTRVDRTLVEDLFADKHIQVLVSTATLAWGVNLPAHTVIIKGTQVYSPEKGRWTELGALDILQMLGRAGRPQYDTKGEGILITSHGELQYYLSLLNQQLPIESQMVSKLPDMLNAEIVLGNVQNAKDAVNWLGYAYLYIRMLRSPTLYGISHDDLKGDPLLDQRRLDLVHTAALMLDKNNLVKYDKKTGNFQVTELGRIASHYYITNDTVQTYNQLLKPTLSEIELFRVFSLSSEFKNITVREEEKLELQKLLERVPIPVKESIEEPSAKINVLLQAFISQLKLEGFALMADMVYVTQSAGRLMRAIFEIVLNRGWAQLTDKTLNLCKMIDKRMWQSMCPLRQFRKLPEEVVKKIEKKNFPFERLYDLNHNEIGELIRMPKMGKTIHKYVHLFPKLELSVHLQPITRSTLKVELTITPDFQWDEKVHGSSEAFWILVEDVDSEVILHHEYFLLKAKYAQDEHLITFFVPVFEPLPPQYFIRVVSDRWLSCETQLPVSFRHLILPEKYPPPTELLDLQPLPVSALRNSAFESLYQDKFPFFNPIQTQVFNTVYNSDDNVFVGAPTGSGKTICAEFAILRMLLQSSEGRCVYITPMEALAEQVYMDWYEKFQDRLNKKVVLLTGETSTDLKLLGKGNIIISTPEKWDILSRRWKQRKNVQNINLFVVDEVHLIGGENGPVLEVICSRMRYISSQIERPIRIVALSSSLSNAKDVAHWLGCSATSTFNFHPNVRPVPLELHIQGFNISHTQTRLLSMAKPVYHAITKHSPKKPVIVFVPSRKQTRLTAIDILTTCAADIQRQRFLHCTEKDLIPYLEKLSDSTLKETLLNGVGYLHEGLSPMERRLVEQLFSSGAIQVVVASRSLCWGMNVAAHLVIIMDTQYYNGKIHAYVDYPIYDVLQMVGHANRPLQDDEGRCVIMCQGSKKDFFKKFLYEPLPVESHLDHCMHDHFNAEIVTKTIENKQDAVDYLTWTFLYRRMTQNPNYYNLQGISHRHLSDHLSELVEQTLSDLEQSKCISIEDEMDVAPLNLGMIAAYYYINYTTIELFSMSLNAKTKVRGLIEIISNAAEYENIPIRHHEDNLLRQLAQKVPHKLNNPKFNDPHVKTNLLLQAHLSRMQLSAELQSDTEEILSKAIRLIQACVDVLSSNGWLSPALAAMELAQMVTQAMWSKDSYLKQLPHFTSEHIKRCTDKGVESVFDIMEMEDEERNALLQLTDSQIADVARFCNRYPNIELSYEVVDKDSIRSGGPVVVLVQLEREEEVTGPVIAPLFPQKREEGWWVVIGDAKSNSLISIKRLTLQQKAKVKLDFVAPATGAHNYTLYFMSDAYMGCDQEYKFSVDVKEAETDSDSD

For assay [2], the target named is T1, snRNP200-flag construct. The experiment in a line: capture ELISA: antibody coated, snRNP200-flag captured, anti-flag HRP detection.

Drawing on patent US20200239593A1 (AIMM THERAPEUTICS B V, published 2020), this text covers binding for two molecules.

Results are given in words; binding and its absence hold for the method and conditions named. Some entries that bind do so weakly or less than the wild type.

B1: AT13-037 (antibody, IgG3, V domains shown)
VH: QVQLVESGGGVVQPGRSLRLSCAASGFTFSTYGMHWVRQAPGKGLEWVAVIWYDGSNTYYADSVKGRFTISRDNSKNTLYLQIKSLRAEDTAVYYCARGRGYSAQGNRNRAYYFDYWGQGTLVTVSS
VL: EIVMTQSPATLSVSPGERVILSCRASQSVSSNLAWYQQKPGQPPRLLIYGAFTRVTGVPARFSGSGSGTEFTLTISSLQSEDFAVYYCQQYNDRPPYTFGQGTKLEIK
Take B1: the binding entry in assay [1] and in assay [2] was “binds” each time.

B2: AT12-023 (antibody, V domains shown)
VH: QVQLQQWGAGLLKPSETLSLTCAVYGGSFSGYYWSWIRQPPGKGLEWIGEINHSGSTNYNPSLKSRVTISVDTSKNQFSLKLSSVTAADTAVYYCARGRSTSPLDYYYYYMDVWAKGTTVTVSS
VL: SSELTQDPAVSVALGQTVRITCQGDFLRSYYASWYQQKPGQAPVLVIFGKNKRPSGIPDRFSGSSSGNTASLTITGAQAEDEADYYCNSRDRSGNHLVFGGGTKLTVL
notes: Human antibody from AML patient donor 59; also called antibody AT12-023
As for B2, the binding result in assay [1] and in assay [2] was “binds” throughout.
